In the supplement of paper PMC4840960:
Where a name gives a salt, the structure may show the parent alone. ± gives the standard deviation of the averaged measurements. Some of the results follow. Plates or batches differ in their baseline, so values are only roughly comparable.

Tested on: E18 rat cortical neuron-glia co-culture
Assay: total nuclei (DAPI) / Olig2+ nuclei (ratio); higher = more depletion of OPC/OL lineage cells
Conditions: 1 µM; treatment time: 8 days (DIV5-DIV13)
Description: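 Primary E18 rat cortical co-cultures (neurons, astrocytes, OPC/OLs) in 96-well plates. NIH Clinical Collection compounds were added on DIV5 in myelination medium at 5 and 1 µM for 8 days, then cells were fixed on DIV13 and stained for MBP, Olig2 and DAPI. Myelination (contiguous aligned MBP fiber length per Olig2+ nucleus) was normalised to plate controls (0.1% DMSO = 0, 1 µM DAPT = 100) as % of DAPT. Each value is from duplicate wells with 4 image fields each. Fiber length/MBP is the fiber score divided by the MBP differentiation score; DAPI/Olig2 is the ratio of total to Olig2+ nuclei.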

Row | SMILES | total nuclei
1 | CCC(COC(=O)c1cc(OC)c(OC)c(OC)c1)(c1ccccc1)N(C)C (stereo not given) [Trimebutine] | 4.11
2 | CN1CC[C@@H](c2ccc(F)cc2)[C@H](COc2ccc3c(c2)OCO3)C1 [N-Methylparoxetine] | 4.22
3 | c1ccc2c(c1)Nc1ccccc1S2 [Phenothiazine] | 2.82
4 | CN1C(=O)CN=C(c2ccccc2)c2cc([N+](=O)[O-])ccc21 [Nimetazepam] | 2.61
5 | FC(F)(F)c1cccc(N2CCNCC2)c1 [1-(3-trifluoromethylphenyl)piperazine hydrochloride (TFMPP)] | 3.54
6 | CCOC(=O)c1cncn1[C@H](C)c1ccccc1 [Etomidate] | 2.53 ± 0.31
7 | CC(NC(C)(C)C)C(=O)c1cccc(Cl)c1 (stereo not given) [Bupropion] | 4.26 ± 0.099
8 | c1ccc2c3c([nH]c2c1)CNCC3 [Tryptoline] | 2.7
9 | c1cncc([C@@H]2CCCN2)c1 [Nornicotine] | 3.59
10 | c1ccc(Cn2ccnc2)cc1 [1-Benzylimidazole] | 2.88
11 | Oc1cc(Cl)ccc1Oc1ccc(Cl)cc1Cl [Triclosan] | 4.76
12 | CC(=O)O[C@H]1C[C@@H]2CC[C@@H]3[C@H](CC[C@@]4(C)[C@H]3C[C@H]([N+]3(C)CCCCC3)[C@@H]4OC(C)=O)[C@@]2(C)C[C@@H]1[N+]1(C)CCCCC1 [Pancuronium] | 3.3
13 | CC(C)(O)[C@@H]1[C@H]2OC(=O)[C@@H]1[C@]1(O)C[C@H]3O[C@]34C(=O)O[C@H]2[C@]14C [Picrotin] | 3.3
14 | CCCN1C[C@H](CSC)C[C@@H]2c3cccc4[nH]cc(c34)C[C@H]21 [Pergolide] | 3.31
15 | CS(=O)(=O)Nc1ccc(Cc2noc(-c3ccc4[nH]cc(CCN)c4c3)n2)cc1 | 2.9
16 | CCCC(C)(COC(N)=O)COC(=O)NC(C)C (stereo not given) [Carisoprodol] | 3.52
17 | C[C@]12CC[C@H]3[C@@H](CCC4=CC(=O)CC[C@@]43C)[C@@H]1CC[C@@H]2O [Testosterone] | 3.17 ± 0.81
18 | CN1C(=O)COc2c(C(=O)NC3CN4CCC3CC4)cc(Cl)cc21 (stereo not given) [Azasetron] | 2.56
19 | Oc1ccc2c3c1O[C@H]1[C@@H](O)CC[C@@]4(O)[C@@H](C2)N(CC2CCC2)CC[C@]314 [Nalbufina] | 5.06
20 | C[C@]12Cc3c[nH]nc3C[C@@H]1CC[C@@H]1[C@@H]2CC[C@@]2(C)[C@H]1CC[C@]2(C)O [Stanozolol] | 4.03

Same assay, conditions: 5 µM; treatment time: 8 days (DIV5-DIV13)

Row | SMILES | total nuclei
21 | CCC(COC(=O)c1cc(OC)c(OC)c(OC)c1)(c1ccccc1)N(C)C (stereo not given) [Trimebutine] | 4.7
22 | CN1CC[C@@H](c2ccc(F)cc2)[C@H](COc2ccc3c(c2)OCO3)C1 [N-Methylparoxetine] | 7
23 | c1ccc2c(c1)Nc1ccccc1S2 [Phenothiazine] | 2.6
24 | CN1C(=O)CN=C(c2ccccc2)c2cc([N+](=O)[O-])ccc21 [Nimetazepam] | 2.7
25 | FC(F)(F)c1cccc(N2CCNCC2)c1 [1-(3-trifluoromethylphenyl)piperazine hydrochloride (TFMPP)] | 3.7
26 | CCOC(=O)c1cncn1[C@H](C)c1ccccc1 [Etomidate] | 2.7 ± 0.28
27 | CC(NC(C)(C)C)C(=O)c1cccc(Cl)c1 (stereo not given) [Bupropion] | 5.05 ± 0.071
28 | c1ccc2c3c([nH]c2c1)CNCC3 [Tryptoline] | 2.9
29 | c1cncc([C@@H]2CCCN2)c1 [Nornicotine] | 3.9
30 | c1ccc(Cn2ccnc2)cc1 [1-Benzylimidazole] | 2.9
31 | Oc1cc(Cl)ccc1Oc1ccc(Cl)cc1Cl [Triclosan] | > 40
32 | CC(=O)O[C@H]1C[C@@H]2CC[C@@H]3[C@H](CC[C@@]4(C)[C@H]3C[C@H]([N+]3(C)CCCCC3)[C@@H]4OC(C)=O)[C@@]2(C)C[C@@H]1[N+]1(C)CCCCC1 [Pancuronium] | 3.6
33 | CC(C)(O)[C@@H]1[C@H]2OC(=O)[C@@H]1[C@]1(O)C[C@H]3O[C@]34C(=O)O[C@H]2[C@]14C [Picrotin] | 3.8
34 | CCCN1C[C@H](CSC)C[C@@H]2c3cccc4[nH]cc(c34)C[C@H]21 [Pergolide] | 5.9
35 | CS(=O)(=O)Nc1ccc(Cc2noc(-c3ccc4[nH]cc(CCN)c4c3)n2)cc1 | 3
36 | CCCC(C)(COC(N)=O)COC(=O)NC(C)C (stereo not given) [Carisoprodol] | 3.7
37 | C[C@]12CC[C@H]3[C@@H](CCC4=CC(=O)CC[C@@]43C)[C@@H]1CC[C@@H]2O [Testosterone] | 2.4
38 | CN1C(=O)COc2c(C(=O)NC3CN4CCC3CC4)cc(Cl)cc21 (stereo not given) [Azasetron] | 2.6
39 | Oc1ccc2c3c1O[C@H]1[C@@H](O)CC[C@@]4(O)[C@@H](C2)N(CC2CCC2)CC[C@]314 [Nalbufina] | 5.5
40 | C[C@]12Cc3c[nH]nc3C[C@@H]1CC[C@@H]1[C@@H]2CC[C@@]2(C)[C@H]1CC[C@]2(C)O [Stanozolol] | > 40
